According to PMC10039853:
Numbering of substitutions follows the chain as printed. Names may count otherwise. Results are given in words; binding and its absence hold for the method and conditions named. Some results given as binding are weak or reduced against the parent protein; the word gives no strength. Blank lines part the entries; values can stand above or below the binder they belong to.

Target: hen egg lysozyme (hen (egg)) (UniProt P00698)
Assay: ELISA; lysozyme (1 ug/mL) coated on a 384-well MaxiSorp plate overnight at 4 C; serial concentrations of VHH in 5% BlockingOne in TBST, 1 h at room temperature; detected with Penta-His HRP conjugate; both purified

binding: binds
B1: anti-hen egg lysozyme VHH D3-L11 mutant A79I (VHH)
VHH: DVQLVESGGGSVQAGGSLRLSCAASGSTDSIEYMTWFRQAPGKAREGVAALYTHTGNTYYTDSVKGRFTISQDKAKNMIYLRMDSVKSEDTAIYTCGATRKYVPVRFALDQSSYDYWGQGTQVTVSS

binding: binds
B2: anti-hen egg lysozyme (HEL) VHH D3-L11, wild type (VHH)
VHH: B1 VHH with I79A
